Data: PMC5973557
These are yes or no findings as the source states them, for the method shown. Sequences can lack the tags named with a protein.

Biological target: T1, Dms1, Gal4 DNA-binding domain fusion from pGBT9(dms1) (S. pombe) (UniProt O74466)
T1 sequence: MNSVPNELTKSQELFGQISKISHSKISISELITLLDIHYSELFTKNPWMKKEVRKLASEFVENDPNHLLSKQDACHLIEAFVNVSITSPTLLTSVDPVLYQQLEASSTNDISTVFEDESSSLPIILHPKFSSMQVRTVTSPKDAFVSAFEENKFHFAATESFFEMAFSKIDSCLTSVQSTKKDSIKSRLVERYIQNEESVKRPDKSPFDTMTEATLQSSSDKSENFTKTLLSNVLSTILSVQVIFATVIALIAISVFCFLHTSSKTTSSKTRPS
Assay: two-hybrid; Gal4 activation domain (AD) and Gal4 DNA-binding domain (BD) fusions tested in yeast (S3 Fig A)

binding	Substance
no binding	Spo15 1000aaΔ, Gal4 activation domain fusion from pGAD424(spo15 1000aaΔ) (S. pombe) (domain or fragment)
no binding	Spo15 750aaΔ, Gal4 activation domain fusion from pGAD424(spo15 750aaΔ) (S. pombe) (domain or fragment)
no binding	Spo15 500aaΔ, Gal4 activation domain fusion from pGAD424(spo15 500aaΔ) (S. pombe) (domain or fragment)
no binding	Spo15 1250aaΔ, Gal4 activation domain fusion from pGAD424(spo15 1250aaΔ) (S. pombe) (domain or fragment)
